Data from paper PMC5290284, “Portal protein functions akin to a DNA-sensor that couples genome-packaging to icosahedral capsid maturation” (Nature Communications, 2017).
These are yes or no findings as the source states them, for the method shown.

Sequences of proteins named here, by UniProt entry; tags and fusion partners are left off. A change or cut given only in a name is not applied to a line headed by its entry. Residues count along the entry.
UniProt P26744: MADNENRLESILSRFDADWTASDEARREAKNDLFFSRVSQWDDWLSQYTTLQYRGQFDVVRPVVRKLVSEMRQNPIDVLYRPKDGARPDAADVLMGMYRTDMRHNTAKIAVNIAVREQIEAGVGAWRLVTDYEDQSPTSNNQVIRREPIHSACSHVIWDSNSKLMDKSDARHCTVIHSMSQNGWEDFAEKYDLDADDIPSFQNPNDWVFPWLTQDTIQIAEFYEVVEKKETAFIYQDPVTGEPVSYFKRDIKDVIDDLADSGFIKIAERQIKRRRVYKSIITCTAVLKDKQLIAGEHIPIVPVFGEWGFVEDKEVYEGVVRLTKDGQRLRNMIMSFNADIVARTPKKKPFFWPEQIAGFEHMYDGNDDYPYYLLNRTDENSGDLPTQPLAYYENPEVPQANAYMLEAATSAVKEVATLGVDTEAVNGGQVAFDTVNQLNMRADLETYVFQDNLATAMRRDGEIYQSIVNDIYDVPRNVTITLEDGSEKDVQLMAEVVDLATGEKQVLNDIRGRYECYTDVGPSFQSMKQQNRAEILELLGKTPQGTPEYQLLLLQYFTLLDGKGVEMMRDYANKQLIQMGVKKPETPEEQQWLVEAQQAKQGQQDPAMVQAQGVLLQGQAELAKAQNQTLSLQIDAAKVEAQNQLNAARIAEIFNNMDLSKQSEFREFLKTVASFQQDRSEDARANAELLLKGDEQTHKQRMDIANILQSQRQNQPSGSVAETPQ
UniProt P26745, residues 1-482: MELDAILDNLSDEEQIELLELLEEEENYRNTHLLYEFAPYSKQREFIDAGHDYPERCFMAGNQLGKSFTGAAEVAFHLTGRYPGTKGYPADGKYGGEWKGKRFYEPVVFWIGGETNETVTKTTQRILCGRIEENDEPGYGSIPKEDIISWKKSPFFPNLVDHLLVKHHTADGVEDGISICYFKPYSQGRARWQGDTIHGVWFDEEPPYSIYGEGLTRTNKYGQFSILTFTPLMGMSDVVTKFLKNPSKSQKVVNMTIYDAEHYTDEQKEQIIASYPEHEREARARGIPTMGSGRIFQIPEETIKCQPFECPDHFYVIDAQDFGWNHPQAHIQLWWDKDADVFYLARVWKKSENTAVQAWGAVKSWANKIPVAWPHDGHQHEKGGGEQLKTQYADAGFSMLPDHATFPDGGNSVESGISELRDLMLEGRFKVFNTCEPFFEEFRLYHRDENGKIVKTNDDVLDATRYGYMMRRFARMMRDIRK

Biological target: P22 PC-portal rings coupled to CNBr-activated Sepharose beads (bacteriophage P22) (UniProt P26744)
Assay: pull-down; PC- or MV-portal rings immobilized on CNBr-activated Sepharose 4B beads; soluble protein added (L-terminase pre-complexed with non-hydrolyzable ATP); bound and unbound fractions on SDS–PAGE; both purified

- binding: no binding
Substance: Truncated ΔC-L-terminase (res. 1–482) (from UniProt P26745 1-482) (domain or fragment)
